Here are results for 29 targets from the supplement of paper PMC10849652.

Chains of the proteins cited; added tags and fusions are not shown. Lines headed by an entry give the natural chain unless they say otherwise; changes in a name come on top.
UniProt Q8NG06: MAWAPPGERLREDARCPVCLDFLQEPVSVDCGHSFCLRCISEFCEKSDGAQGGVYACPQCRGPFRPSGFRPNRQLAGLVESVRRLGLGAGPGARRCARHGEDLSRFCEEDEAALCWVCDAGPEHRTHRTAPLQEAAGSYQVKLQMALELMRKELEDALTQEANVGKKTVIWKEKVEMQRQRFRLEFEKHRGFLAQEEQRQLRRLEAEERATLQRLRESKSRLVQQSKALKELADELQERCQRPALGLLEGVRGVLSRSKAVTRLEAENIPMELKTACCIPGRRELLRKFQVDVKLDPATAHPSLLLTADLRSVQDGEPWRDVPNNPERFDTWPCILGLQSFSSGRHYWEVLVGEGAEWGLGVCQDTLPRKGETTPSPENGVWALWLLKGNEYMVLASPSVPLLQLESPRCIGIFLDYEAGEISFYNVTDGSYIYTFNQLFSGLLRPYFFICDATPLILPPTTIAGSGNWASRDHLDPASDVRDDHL
UniProt Q9Y4A5, whole entry, looked up: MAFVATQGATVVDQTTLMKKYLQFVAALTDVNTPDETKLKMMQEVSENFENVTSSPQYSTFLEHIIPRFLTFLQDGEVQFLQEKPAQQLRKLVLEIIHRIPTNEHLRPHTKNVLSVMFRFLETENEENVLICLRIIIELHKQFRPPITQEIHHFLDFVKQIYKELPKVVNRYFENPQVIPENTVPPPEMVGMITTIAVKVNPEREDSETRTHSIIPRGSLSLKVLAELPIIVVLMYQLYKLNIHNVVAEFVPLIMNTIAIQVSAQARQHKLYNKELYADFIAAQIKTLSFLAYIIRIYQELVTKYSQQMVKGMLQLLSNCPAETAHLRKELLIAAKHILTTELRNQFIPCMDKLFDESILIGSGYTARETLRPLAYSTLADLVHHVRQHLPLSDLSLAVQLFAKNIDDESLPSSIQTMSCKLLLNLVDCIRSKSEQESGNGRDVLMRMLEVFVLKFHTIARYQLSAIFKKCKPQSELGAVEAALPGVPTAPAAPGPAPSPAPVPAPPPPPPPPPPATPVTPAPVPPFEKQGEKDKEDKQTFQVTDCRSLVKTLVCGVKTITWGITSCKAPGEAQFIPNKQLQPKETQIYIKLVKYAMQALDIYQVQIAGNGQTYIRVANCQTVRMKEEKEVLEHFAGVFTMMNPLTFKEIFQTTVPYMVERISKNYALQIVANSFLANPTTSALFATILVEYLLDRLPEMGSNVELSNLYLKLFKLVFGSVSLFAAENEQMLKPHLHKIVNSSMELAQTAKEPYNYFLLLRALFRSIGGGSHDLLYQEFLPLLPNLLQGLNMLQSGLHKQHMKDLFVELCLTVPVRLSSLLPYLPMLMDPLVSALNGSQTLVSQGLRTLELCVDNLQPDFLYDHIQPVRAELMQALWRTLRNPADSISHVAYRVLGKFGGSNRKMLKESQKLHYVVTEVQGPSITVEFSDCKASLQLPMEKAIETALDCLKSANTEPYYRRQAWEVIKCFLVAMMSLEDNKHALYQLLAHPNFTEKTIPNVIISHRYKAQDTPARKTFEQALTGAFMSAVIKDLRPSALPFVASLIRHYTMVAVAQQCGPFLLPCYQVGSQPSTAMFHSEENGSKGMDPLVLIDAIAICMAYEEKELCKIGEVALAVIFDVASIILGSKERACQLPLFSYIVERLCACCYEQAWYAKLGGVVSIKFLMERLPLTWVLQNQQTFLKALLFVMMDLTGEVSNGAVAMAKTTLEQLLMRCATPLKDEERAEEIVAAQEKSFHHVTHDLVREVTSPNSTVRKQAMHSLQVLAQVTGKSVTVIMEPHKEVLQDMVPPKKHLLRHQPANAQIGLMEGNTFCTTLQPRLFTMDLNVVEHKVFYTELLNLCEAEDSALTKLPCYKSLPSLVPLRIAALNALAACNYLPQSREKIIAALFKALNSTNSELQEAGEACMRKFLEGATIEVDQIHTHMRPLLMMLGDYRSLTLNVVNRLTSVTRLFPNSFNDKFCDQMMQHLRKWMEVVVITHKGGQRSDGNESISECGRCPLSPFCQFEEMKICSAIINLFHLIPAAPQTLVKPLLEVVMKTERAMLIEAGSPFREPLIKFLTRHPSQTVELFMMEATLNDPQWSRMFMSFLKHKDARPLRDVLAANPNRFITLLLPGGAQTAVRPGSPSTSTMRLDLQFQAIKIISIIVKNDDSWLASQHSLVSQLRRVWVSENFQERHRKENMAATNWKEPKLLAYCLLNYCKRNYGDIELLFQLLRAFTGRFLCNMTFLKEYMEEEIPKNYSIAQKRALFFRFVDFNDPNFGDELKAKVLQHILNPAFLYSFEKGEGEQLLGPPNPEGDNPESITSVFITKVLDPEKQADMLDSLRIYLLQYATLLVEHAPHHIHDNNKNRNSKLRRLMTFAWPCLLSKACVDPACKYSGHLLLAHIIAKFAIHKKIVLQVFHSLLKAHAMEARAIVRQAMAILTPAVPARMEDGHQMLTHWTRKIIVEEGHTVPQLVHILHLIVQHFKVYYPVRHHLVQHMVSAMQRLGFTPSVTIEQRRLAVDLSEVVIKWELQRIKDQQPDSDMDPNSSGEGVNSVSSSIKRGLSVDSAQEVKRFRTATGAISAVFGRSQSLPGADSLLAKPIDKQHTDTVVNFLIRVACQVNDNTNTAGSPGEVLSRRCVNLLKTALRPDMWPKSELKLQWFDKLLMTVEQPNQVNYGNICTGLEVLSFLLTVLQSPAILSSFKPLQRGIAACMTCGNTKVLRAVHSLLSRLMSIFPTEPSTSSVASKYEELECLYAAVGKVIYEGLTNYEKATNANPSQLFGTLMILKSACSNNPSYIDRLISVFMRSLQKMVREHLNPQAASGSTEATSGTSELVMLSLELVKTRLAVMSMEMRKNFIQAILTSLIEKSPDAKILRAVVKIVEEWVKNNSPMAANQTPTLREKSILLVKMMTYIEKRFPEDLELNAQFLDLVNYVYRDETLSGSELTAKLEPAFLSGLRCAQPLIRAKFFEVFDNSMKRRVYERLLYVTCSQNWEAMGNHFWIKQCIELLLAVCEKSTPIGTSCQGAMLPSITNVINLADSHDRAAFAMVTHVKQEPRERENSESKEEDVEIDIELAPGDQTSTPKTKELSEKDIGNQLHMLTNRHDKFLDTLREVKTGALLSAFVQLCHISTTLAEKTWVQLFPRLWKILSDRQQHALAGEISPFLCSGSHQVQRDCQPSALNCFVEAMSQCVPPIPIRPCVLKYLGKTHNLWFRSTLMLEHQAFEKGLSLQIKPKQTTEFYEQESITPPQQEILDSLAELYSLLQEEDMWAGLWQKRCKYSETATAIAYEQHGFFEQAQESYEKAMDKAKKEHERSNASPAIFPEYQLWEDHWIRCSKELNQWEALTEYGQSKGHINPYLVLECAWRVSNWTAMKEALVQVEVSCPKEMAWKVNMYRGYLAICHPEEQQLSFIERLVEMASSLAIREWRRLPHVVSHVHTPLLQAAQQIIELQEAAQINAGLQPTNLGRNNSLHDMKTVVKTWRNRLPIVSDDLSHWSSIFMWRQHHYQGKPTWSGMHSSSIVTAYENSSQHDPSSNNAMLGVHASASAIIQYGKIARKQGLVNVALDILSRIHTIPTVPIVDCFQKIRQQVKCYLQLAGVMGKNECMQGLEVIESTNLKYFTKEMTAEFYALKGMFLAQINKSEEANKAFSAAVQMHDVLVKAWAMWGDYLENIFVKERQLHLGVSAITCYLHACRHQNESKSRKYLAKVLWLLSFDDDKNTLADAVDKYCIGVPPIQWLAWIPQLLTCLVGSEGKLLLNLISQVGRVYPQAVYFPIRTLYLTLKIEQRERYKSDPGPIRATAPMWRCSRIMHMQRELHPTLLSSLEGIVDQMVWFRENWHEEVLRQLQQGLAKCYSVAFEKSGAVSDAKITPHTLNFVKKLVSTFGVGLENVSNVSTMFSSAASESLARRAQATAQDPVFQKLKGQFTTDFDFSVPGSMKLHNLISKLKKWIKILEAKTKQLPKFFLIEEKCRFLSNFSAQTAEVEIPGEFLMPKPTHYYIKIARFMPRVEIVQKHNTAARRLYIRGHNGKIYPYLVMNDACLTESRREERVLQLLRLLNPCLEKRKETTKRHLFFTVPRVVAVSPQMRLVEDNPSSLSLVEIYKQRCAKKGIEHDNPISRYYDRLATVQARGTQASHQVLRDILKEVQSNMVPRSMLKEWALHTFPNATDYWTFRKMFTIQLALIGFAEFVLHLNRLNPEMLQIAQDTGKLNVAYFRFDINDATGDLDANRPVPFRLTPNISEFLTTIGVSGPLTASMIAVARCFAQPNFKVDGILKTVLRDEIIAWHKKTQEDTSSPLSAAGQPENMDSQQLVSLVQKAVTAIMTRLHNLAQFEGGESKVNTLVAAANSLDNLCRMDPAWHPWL
UniProt O43715: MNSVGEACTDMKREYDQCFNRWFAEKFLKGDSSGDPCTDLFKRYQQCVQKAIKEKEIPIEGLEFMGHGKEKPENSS
UniProt Q5BVD1: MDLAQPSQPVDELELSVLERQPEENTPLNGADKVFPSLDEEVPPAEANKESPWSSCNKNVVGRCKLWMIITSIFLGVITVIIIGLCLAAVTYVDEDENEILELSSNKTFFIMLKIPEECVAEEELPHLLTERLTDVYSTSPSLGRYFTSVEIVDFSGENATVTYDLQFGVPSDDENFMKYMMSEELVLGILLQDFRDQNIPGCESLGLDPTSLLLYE
UniProt Q13114: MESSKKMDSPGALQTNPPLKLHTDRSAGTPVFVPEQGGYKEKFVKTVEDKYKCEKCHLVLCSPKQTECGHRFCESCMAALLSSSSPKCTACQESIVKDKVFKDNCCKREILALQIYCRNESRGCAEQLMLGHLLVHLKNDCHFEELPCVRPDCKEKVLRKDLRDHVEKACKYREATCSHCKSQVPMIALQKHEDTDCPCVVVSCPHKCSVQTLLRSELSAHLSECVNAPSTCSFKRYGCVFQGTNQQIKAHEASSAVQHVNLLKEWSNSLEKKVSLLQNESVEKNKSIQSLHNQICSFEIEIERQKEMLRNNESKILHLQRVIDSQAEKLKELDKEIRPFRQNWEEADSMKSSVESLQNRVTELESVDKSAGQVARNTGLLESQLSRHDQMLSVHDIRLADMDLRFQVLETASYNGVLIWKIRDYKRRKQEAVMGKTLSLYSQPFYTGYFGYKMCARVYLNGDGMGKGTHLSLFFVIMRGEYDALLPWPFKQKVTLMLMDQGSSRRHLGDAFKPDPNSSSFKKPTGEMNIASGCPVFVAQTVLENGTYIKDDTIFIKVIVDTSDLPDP
UniProt Q7Z4L5: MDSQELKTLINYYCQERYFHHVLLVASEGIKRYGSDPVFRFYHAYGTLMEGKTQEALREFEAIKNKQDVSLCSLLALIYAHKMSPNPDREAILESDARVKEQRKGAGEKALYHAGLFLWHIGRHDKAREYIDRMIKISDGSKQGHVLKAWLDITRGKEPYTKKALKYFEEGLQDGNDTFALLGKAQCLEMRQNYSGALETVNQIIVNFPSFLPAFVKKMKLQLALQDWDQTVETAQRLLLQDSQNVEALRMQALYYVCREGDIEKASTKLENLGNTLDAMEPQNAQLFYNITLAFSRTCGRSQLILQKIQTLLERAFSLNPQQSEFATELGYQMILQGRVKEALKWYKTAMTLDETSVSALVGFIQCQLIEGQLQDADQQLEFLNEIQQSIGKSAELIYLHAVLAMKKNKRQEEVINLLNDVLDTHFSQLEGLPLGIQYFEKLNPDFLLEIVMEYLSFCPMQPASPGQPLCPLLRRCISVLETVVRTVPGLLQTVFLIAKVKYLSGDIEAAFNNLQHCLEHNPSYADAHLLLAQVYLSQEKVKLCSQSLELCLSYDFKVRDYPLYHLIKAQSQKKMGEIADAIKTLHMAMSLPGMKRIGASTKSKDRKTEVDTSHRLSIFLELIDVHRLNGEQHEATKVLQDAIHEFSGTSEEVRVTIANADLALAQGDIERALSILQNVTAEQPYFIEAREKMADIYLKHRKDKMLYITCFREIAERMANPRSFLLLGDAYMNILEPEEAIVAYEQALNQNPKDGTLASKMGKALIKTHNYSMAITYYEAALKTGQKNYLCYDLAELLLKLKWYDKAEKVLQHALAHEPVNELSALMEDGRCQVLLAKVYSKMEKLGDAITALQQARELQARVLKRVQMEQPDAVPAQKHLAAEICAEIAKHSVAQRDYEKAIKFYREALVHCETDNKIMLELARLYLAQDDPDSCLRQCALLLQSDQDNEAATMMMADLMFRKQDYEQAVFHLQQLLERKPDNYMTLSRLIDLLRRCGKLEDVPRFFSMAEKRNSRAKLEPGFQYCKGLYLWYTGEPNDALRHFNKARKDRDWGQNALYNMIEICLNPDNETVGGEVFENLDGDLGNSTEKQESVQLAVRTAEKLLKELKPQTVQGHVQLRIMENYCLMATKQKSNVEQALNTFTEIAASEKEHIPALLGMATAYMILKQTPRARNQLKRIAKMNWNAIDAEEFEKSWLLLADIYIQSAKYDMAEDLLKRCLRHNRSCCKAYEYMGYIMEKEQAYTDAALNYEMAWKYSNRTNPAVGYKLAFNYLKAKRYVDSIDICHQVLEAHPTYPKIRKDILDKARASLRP

Some of the results follow.

Compound in one test: COC(=O)N[C@@H](C)CNc1nccc(-c2cn(C(C)C)nc2-c2cc(Cl)cc(NS(C)(=O)=O)c2F)n1 [encorafenib]
In words: log2 fold change, soluble protein after heating vs DMSO (PISA); higher = thermal stabilisation; K562 lysate, 10 uM; active = over 0.2 and 3.5 SD of the protein, either way, in both replicates (recomputed). The method, boiled down: (§1)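 A 30 min treatment with 10 μM compound was applied to crude K562 extract at 1 mg/mL protein in PBS pH 7.4 with 1 mM MgCl2. Heating for 3 min spanned 48°C-58°C, after which aliquots were pooled, adjusted to 0.5% NP-40 at 4°C and spun at 21,000xg for 90 min. TMTpro 16plex LC-MS/MS of the supernatant, with channel sums equalised, gave values recorded as log-two fold change in thermal stability against solvent controls, from duplicates.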
For the target TSC1 (UniProt Q92574), the log2 fold change is inactive: 0.025.

TTC26: the log2 fold change was inactive: 0.187.

Turning to TTLL12 (UniProt V9GY16), the log2 fold change is inactive: -0.174.

Take TSPYL2 (UniProt Q9H2G4): the log2 fold change was inactive: -0.234.

Turning to TRIM58 (UniProt Q8NG06), the log2 fold change was inactive: 0.032.

Consider TRRAP (UniProt Q9Y4A5), for which the log2 fold change is inactive: 0.055.

With TRNT1 (UniProt Q96Q11), the log2 fold change is inactive: 0.016.

With TRIP10 (UniProt Q15642), the log2 fold change was inactive: -0.003.

On to TRIAP1 (UniProt O43715), for which the log2 fold change was inactive: 0.036.

Regarding TSC22D2 (UniProt O75157), the log2 fold change is inactive: 0.076.

Regarding TRIM47 (UniProt Q96LD4), the log2 fold change is inactive: -0.105.

Turning to TRIP10 isoform 2 (UniProt Q15642), the log2 fold change was inactive: 0.15.

With TTMP isoform 3 (UniProt Q5BVD1), the log2 fold change is inactive: -0.06.

For the target TRUB2 (UniProt O95900), the log2 fold change is inactive: 0.018.

For TRAF3 (UniProt Q13114), the log2 fold change is inactive: 0.076.

With TRIM65 (UniProt Q6PJ69), the log2 fold change was inactive: -0.002.

As for TTC21B (UniProt Q7Z4L5), the log2 fold change is inactive: 0.124.

Regarding TRPM7 (UniProt Q96QT4), the log2 fold change was inactive: -0.034.

As to TRAF7 (UniProt Q6Q0C0), the log2 fold change was inactive: 0.015.

Take TSKS (UniProt Q9UJT2): the log2 fold change was inactive: 0.128.

Regarding TRIOBP (UniProt Q9H2D6), the log2 fold change was inactive: 0.009.

For TSPAN3 (UniProt O60637), the log2 fold change was inactive: -0.015.

For the target TRIO (UniProt O75962), the log2 fold change is inactive: -0.062.

Compound in a further test: COC(=O)[C@H](CCSC)NC(=O)C1=C(C=C(C=C1)NC[C@H](CS)N)C2=CC=CC=C2
The test is described as above. The method, boiled down: as §1
With TSC1 (UniProt Q92574), the log2 fold change is inactive: -0.018.

Consider TTC26, for which the log2 fold change is inactive: -0.023.

Take TTLL12 (UniProt V9GY16): the log2 fold change is inactive: 0.146.

TSPYL2 (UniProt Q9H2G4): the log2 fold change was inactive: -0.029.

Turning to TRIM58 (UniProt Q8NG06), the log2 fold change is inactive: 0.101.

Consider TRRAP (UniProt Q9Y4A5), for which the log2 fold change is inactive: 0.009.

In the case of TRNT1 (UniProt Q96Q11), the log2 fold change was inactive: -0.039.

For the target TRIP10 (UniProt Q15642), the log2 fold change was inactive: 0.056.

For the target TRIAP1 (UniProt O43715), the log2 fold change is inactive: -0.114.

TSC22D2 (UniProt O75157): the log2 fold change was inactive: 0.043.

On to TRIM47 (UniProt Q96LD4), for which the log2 fold change is inactive: 0.055.

TRIP10 isoform 2 (UniProt Q15642): the log2 fold change is inactive: -0.017.

For the target TTMP isoform 3 (UniProt Q5BVD1), the log2 fold change is inactive: 0.06.

In the case of TRUB2 (UniProt O95900), the log2 fold change was inactive: 0.078.

In the case of TRAF3 (UniProt Q13114), the log2 fold change was inactive: -0.055.

As to TRIM65 (UniProt Q6PJ69), the log2 fold change was inactive: 0.089.

For the target TTC21B (UniProt Q7Z4L5), the log2 fold change is inactive: -0.058.

Consider TRPM7 (UniProt Q96QT4), for which the log2 fold change is inactive: 0.01.

Consider TRAF7 (UniProt Q6Q0C0), for which the log2 fold change is inactive: -0.11.

For the target TSKS (UniProt Q9UJT2), the log2 fold change is inactive: -0.245.

As for TRIOBP (UniProt Q9H2D6), the log2 fold change was inactive: 0.085.

As to TSPAN3 (UniProt O60637), the log2 fold change is inactive: 0.026.

In the case of TRIO (UniProt O75962), the log2 fold change is inactive: 0.008.

Compound in a further test: COc1cc(Nc2ncc3c(n2)-c2ccc(Cl)cc2C(c2c(F)cccc2OC)=NC3)ccc1C(=O)O [alisertib]
Described as above. The method, boiled down: as §1
TRMT2B (UniProt Q96GJ1): the log2 fold change is inactive: -0.012.

On to TSC1 (UniProt Q92574), for which the log2 fold change is inactive: 0.005.

TTC26: the log2 fold change was inactive: -0.13.

As to TSPYL2 (UniProt Q9H2G4), the log2 fold change is inactive: -0.113.

With TRIM58 (UniProt Q8NG06), the log2 fold change is inactive: -0.039.

For TSPYL1 (UniProt Q9H0U9), the log2 fold change was inactive: 0.

In the case of TRRAP (UniProt Q9Y4A5), the log2 fold change is inactive: -0.016.

For the target TRNT1 (UniProt Q96Q11), the log2 fold change was inactive: -0.02.

TRIP10 (UniProt Q15642): the log2 fold change was inactive: 0.025.

For the target TRIAP1 (UniProt O43715), the log2 fold change is inactive: 0.072.

On to TSC22D2 (UniProt O75157), for which the log2 fold change is inactive: -0.019.

For TRIM47 (UniProt Q96LD4), the log2 fold change is inactive: 0.069.

On to TRPT1 isoform 4 (UniProt Q86TN4), for which the log2 fold change was inactive: -0.042.

In the case of TRIP10 isoform 2 (UniProt Q15642), the log2 fold change was inactive: 0.101.

Turning to TSEN15, A0A2U3TZM3, the log2 fold change was inactive: -0.282.

Take TTMP isoform 3 (UniProt Q5BVD1): the log2 fold change is inactive: 0.119.

For TRAF3 (UniProt Q13114), the log2 fold change is inactive: -0.15.

For TRIM65 (UniProt Q6PJ69), the log2 fold change was inactive: -0.02.

Take TSTD2 (UniProt Q5T7W7): the log2 fold change was inactive: 0.036.

Consider TTC21B (UniProt Q7Z4L5), for which the log2 fold change was inactive: -0.027.

Consider TRPM7 (UniProt Q96QT4), for which the log2 fold change was inactive: 0.008.

Turning to TRAF7 (UniProt Q6Q0C0), the log2 fold change is inactive: -0.05.

TSPAN3 (UniProt O60637): the log2 fold change is inactive: -0.231.

TRIM27 (UniProt P14373): the log2 fold change was inactive: -0.027.

With TRIO (UniProt O75962), the log2 fold change was inactive: -0.011.
